From article doi:10.1101/583864
These are yes or no findings as the source states them, for the method shown. Some binding calls cover weakened binding; strength is not graded here.

Biological target: T1, Apoptotic Protease Activating Factor 1 (APAF1), endogenous (human (endogenous in U2OS)), O14727
T1 chain: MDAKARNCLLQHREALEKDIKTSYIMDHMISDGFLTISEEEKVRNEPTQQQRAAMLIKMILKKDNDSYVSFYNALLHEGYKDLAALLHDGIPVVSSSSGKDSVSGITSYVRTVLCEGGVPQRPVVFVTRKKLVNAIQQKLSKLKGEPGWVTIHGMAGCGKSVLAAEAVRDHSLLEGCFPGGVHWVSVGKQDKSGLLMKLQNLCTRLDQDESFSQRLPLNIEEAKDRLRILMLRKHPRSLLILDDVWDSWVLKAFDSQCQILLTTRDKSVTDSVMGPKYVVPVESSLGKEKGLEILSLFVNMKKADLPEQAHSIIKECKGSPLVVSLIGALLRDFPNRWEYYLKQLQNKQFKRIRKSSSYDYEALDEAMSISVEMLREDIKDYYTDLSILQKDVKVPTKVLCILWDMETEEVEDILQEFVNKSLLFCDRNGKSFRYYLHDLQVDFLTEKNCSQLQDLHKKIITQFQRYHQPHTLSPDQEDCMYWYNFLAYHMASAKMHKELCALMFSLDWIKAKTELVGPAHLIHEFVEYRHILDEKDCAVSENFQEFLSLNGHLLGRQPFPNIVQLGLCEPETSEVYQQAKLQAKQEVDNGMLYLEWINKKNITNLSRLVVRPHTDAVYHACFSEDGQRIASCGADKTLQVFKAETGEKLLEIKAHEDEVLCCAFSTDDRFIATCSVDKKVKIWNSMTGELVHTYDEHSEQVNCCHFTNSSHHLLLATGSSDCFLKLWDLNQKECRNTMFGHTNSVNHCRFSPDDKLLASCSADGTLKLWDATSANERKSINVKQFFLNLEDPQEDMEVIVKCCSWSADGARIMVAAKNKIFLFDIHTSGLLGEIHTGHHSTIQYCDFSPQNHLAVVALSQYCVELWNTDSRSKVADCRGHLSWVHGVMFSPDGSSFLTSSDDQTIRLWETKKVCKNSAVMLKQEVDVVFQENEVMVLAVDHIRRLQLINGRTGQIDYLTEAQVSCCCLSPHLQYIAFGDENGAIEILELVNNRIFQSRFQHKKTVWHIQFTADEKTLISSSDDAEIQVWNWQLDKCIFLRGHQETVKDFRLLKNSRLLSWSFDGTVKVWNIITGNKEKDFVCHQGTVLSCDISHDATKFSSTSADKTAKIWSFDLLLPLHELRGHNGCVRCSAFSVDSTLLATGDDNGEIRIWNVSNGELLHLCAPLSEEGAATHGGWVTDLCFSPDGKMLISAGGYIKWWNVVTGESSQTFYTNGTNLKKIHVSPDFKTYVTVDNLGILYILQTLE
Assay: sucrose gradient centrifugation
Conditions: remark: other sources report otherwise

binding: binds
B1: Apoptotic Protease Activating Factor 1 (APAF1), endogenous, O14727 1-1248 (protein)
chain: T1 chain
